This assay concerns the target T1, FBXO24-HA (FBXO24 with a C-terminal HA epitope tag, from Fbxo24-HA-tagged transgenic mice) (mouse) (UniProt Q9D417).
T1 sequence: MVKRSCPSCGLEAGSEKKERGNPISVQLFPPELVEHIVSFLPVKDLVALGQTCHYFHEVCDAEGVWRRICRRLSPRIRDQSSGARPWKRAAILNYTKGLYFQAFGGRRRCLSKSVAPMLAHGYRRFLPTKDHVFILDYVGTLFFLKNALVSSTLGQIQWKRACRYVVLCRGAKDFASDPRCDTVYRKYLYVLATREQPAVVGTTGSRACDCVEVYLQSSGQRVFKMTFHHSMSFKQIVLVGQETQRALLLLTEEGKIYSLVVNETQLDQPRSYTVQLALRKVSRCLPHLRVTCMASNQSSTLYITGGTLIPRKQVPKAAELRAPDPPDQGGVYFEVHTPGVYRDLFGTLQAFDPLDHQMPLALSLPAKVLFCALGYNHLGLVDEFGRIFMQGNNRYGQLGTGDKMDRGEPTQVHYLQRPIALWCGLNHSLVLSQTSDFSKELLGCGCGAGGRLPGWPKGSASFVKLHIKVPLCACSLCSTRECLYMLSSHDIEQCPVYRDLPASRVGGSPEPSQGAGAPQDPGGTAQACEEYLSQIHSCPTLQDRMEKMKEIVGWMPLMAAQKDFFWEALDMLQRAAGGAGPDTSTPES
Nature of the assay: co-IP; testis lysate of Fbxo24-HA-tagged mice in IP buffer, anti-HA nanobody agarose beads, 4°C overnight, western blot; wild-type testis as negative control.

No constants are given. Whether binding was seen depends on the method and setting. In cells and extracts the contact can be indirect. Tags and fused reporters may be left off the sequences shown.

Take “histone H2B (mouse (endogenous in testis))”: the binding result is on record as “no binding”.

Source of the values: paper PMC10932545.
